Laboratory results: paper PMC11610224
These are yes or no findings as the source states them, for the method shown. In cells and extracts the contact can be indirect. Here binding means that the protein was enriched with, or labelled near, the bait; the list need not be complete.

Sequences of proteins named here, by UniProt entry; tags and fusion partners are left off.
UniProt Q9C0C7: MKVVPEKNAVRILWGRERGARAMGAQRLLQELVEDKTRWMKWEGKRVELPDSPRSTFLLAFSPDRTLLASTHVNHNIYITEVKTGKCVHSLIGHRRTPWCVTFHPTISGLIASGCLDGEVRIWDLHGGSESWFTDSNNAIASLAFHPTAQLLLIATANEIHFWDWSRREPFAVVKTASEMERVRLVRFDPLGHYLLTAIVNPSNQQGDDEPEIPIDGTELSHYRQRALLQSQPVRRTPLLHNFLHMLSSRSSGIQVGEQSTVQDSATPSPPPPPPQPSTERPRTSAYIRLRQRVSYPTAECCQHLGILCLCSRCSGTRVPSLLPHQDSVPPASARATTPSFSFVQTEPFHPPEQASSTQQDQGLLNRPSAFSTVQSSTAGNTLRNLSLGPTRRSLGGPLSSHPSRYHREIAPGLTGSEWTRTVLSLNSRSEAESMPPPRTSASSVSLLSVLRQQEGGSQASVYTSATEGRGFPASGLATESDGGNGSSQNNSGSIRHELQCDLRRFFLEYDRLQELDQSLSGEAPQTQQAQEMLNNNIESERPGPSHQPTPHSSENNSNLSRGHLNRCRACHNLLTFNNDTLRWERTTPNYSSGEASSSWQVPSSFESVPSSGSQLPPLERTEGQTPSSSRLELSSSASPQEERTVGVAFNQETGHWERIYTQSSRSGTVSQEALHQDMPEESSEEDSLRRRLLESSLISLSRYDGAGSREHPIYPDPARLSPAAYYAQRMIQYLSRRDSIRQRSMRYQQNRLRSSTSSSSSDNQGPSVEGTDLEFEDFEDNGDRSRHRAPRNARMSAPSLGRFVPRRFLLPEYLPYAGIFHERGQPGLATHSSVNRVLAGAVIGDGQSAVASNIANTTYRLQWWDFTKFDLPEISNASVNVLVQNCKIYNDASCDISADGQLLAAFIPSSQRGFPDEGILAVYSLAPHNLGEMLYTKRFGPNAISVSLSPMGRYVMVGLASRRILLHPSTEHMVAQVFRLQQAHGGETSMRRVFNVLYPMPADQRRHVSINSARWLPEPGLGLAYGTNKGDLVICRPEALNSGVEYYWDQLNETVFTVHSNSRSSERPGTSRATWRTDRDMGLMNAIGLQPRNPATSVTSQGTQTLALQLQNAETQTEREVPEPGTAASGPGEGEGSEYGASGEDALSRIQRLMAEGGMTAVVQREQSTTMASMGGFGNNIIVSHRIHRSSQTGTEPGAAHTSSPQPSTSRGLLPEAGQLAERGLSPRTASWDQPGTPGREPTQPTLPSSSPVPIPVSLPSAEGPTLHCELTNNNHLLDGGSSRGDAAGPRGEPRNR
UniProt Q96GD4: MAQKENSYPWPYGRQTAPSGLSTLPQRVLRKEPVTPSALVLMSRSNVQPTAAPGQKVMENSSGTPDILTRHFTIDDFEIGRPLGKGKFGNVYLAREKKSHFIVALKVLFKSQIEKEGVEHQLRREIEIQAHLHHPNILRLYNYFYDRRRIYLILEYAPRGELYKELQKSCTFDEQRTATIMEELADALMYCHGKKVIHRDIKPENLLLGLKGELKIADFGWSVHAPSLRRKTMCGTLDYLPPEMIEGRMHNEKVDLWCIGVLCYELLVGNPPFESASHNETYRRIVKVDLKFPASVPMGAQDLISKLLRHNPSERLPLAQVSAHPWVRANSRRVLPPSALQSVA
UniProt Q92624: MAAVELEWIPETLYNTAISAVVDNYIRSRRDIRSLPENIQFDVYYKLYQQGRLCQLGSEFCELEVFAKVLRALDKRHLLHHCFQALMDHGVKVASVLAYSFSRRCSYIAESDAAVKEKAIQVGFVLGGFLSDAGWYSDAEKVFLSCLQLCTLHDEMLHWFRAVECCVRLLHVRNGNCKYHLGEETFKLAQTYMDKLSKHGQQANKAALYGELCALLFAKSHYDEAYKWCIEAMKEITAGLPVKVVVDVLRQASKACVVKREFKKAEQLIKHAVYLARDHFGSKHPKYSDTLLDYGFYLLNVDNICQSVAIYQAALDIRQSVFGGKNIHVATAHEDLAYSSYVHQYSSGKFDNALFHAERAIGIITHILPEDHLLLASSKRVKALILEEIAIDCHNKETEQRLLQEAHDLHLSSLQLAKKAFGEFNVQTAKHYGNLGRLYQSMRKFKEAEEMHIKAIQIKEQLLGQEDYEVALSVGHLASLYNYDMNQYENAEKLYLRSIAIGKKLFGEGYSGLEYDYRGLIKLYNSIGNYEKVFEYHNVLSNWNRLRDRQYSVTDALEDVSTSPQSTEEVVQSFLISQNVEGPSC
UniProt P30279: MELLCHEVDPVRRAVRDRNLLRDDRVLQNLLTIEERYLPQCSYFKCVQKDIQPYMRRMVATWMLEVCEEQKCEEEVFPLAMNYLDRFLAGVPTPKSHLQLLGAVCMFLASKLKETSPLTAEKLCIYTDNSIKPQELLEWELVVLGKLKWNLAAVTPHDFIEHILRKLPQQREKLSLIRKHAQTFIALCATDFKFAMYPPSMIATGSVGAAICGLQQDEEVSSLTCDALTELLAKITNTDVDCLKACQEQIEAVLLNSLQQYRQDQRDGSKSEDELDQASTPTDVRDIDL
UniProt Q13620: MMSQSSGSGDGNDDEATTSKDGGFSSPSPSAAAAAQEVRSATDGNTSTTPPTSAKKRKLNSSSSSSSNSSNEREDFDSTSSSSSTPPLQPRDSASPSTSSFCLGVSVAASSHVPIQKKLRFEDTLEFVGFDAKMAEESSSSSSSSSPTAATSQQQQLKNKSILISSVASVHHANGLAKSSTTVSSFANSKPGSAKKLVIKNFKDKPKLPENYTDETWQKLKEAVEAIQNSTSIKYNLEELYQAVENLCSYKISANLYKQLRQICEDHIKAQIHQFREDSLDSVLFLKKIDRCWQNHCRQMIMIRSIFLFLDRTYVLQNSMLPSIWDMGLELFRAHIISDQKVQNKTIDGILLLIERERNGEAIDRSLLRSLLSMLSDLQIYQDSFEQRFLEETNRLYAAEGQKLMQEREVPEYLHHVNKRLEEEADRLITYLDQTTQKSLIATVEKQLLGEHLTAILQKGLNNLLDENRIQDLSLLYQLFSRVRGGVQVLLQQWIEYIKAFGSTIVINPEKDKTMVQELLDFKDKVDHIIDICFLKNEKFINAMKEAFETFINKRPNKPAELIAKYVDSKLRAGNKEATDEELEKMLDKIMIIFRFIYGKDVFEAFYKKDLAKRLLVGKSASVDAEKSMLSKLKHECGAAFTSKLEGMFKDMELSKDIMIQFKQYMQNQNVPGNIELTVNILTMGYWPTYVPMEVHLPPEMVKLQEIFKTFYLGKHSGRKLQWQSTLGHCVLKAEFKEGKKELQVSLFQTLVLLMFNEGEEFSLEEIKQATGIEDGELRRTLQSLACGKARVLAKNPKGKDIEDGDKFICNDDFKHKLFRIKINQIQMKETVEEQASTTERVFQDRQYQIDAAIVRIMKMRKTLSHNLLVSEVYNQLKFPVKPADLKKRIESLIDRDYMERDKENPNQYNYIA
UniProt P63167: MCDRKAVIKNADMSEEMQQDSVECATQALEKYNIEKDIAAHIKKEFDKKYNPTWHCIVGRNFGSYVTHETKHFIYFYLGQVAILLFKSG
UniProt Q9Y2I1: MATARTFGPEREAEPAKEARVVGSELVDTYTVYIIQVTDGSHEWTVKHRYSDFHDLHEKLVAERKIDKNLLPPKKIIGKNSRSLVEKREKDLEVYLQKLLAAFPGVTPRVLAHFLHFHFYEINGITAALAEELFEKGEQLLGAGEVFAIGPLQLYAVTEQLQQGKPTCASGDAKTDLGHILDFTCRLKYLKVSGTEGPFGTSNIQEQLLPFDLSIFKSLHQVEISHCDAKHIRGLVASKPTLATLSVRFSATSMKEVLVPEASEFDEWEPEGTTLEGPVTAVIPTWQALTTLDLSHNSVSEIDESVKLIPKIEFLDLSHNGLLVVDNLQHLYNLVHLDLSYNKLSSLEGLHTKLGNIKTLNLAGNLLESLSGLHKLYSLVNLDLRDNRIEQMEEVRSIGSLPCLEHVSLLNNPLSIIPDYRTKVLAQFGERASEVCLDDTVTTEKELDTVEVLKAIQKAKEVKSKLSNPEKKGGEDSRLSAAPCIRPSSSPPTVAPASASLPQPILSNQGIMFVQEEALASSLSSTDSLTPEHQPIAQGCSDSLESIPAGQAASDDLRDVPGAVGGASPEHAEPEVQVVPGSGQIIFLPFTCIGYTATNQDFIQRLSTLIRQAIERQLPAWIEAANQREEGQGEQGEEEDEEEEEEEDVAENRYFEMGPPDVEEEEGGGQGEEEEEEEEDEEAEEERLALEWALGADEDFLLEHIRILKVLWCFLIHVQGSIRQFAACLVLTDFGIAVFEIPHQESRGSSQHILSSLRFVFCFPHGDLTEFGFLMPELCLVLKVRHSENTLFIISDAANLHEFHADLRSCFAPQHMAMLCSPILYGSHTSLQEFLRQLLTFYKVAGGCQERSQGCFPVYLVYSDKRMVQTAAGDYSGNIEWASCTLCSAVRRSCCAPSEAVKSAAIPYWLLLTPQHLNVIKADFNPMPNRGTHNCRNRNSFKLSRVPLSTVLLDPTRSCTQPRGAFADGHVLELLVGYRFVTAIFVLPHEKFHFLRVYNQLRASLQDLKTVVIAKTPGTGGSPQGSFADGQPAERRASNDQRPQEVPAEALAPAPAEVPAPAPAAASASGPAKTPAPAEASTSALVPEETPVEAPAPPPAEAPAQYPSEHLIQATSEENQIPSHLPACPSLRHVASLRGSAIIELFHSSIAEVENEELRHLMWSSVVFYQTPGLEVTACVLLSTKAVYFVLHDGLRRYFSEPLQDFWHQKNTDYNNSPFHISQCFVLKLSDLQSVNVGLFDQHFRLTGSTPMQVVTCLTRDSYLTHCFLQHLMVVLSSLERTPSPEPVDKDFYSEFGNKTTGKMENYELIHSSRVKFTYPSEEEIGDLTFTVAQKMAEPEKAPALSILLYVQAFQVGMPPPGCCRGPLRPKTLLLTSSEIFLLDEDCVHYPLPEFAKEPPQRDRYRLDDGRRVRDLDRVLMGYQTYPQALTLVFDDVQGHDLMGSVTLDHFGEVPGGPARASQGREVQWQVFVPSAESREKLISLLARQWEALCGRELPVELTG
UniProt Q9H672: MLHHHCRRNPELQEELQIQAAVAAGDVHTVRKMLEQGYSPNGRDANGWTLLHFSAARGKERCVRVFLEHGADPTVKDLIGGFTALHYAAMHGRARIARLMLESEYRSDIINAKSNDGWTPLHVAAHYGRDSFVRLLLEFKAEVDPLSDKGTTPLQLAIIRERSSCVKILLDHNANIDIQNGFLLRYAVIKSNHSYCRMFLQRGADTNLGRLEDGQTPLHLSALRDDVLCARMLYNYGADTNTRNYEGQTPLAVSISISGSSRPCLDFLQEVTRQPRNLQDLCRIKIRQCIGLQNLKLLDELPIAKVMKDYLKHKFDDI
UniProt Q15370: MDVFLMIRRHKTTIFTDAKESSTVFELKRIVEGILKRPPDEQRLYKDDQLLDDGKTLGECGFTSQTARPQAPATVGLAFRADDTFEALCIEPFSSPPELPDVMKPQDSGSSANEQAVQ
UniProt Q86X40: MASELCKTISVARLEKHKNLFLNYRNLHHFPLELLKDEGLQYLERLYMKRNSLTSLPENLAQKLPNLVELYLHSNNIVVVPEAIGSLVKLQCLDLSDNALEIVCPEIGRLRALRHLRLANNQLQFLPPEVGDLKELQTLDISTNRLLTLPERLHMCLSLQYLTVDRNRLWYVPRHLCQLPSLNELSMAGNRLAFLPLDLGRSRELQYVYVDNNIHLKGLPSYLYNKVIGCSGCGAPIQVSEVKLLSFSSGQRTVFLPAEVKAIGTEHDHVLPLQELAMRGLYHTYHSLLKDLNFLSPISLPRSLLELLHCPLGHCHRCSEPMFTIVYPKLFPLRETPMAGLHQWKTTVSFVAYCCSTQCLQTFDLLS
UniProt Q96S21: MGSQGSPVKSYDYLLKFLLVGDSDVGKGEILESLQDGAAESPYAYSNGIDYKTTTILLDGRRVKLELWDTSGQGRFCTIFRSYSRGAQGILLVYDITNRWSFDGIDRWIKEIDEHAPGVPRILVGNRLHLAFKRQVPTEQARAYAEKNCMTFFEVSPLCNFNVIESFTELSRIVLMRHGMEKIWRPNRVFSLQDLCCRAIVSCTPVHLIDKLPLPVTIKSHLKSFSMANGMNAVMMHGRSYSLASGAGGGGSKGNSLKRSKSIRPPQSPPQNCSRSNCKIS
UniProt Q8WXH5: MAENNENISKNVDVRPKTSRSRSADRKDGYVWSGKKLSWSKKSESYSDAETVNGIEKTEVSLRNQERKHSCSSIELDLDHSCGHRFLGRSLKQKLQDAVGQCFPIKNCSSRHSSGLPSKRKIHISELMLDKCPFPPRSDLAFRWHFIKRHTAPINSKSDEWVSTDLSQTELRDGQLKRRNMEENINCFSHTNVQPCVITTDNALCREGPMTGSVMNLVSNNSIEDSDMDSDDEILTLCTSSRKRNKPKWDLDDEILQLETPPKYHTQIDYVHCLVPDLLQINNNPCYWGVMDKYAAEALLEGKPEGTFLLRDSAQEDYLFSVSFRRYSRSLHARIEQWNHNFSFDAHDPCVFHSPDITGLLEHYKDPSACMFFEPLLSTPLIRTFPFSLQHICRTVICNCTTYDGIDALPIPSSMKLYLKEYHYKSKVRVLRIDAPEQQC

target: 3xFLAG-AMBRA1 (UniProt Q9C0C7); assay: affinity purification with mass spectrometry; anti-FLAG M2 beads, lysates of ATRT cell lines expressing 3xFLAG-AMBRA1 or 3xFLAG alone, overnight at 4C, washed with Tris buffer pH 7.4, on-bead digestion, DIA LC-MS; with and without the CRL inhibitor MLN4924

binding | Molecule
binds | AURKB (from UniProt Q96GD4 1-344)

target: 3xFLAG-AMBRA1 (UniProt Q9C0C7); assay: affinity purification with mass spectrometry; anti-FLAG M2 beads, overnight at 4 C, total lysates of ATRT cells (BT12, BT16, CHLA06, CHLA266) expressing 3xFLAG-AMBRA1 against 3xFLAG alone; with and without the CRL inhibitor MLN4924 (interactors against substrates); on-bead digestion, DIA LC-MS

Molecule | binding
APPBP2 (from UniProt Q92624 1-585) | binds
CCND2 (from UniProt P30279 1-289) | binds
CUL4B (from UniProt Q13620 1-913) | binds
DYL1 (from UniProt P63167 1-89) | binds
NISCH (from UniProt Q9Y2I1 1-1504) | binds
ASB1 (protein, UniProt Q9Y576 1-335) MAEGGSPDGRAGPGSAGRNLKEWLREQFCDHPLEHCEDTRLHDAAYVGDLQTLRSLLQEESYRSRINEKSVWCCGWLPCTPLRIAATAGHGSCVDFLIRKGAEVDLVDVKGQTALYVAVVNGHLESTQILLEAGADPNGSRHHRSTPVYHASRVGRADILKALIRYGADVDVNHHLTPDVQPRFSRRLTSLVVCPLYISAAYHNLQCFRLLLLAGANPDFNCNGPVNTQGFYRGSPGCVMDAVLRHGCEAAFVSLLVEFGANLNLVKWESLGPESRGRRKVDPEALQVFKEARSVPRTLLCLCRVAVRRALGKHRLHLIPSLPLPDPIKKFLLHE | binds
RNF187 (protein, UniProt Q5TA31 1-235) MALPAGPAEAACALCQRAPREPVRADCGHRFCRACVVRFWAEEDGPFPCPECADDCWQRAVEPGRPPLSRRLLALEEAAAAPARDGPASEAALQLLCRADAGPLCAACRMAAGPEPPEWEPRWRKALRGKENKGSVEIMRKDLNDARDLHGQAESAAAVWKGHVMDRRKKALTDYKKLRAFFVEEEEHFLQEAEKEEGLPEDELADPTERFRSLLQAVSELEKKHRNLGLSMLLQ | binds
MAIP1 (protein, UniProt Q8WWC4 97-291) STEEKPQQHQKTKMIVLGFSNPINWVRTRIKAFLIWAYFDKEFSITEFSEGAKQAFAHVSKLLSQCKFDLLEELVAKEVLHALKEKVTSLPDNHKNALAANIDEIVFTSTGDISIYYDEKGRKFVNILMCFWYLTSANIPSETLRGASVFQVKLGNQNVETKQLLSASYEFQREFTQGVKPDWTIARIEHSKLLE | binds
GTF2H3 (protein, UniProt Q13889 1-308) MVSDEDELNLLVIVVDANPIWWGKQALKESQFTLSKCIDAVMVLGNSHLFMNRSNKLAVIASHIQESRFLYPGKNGRLGDFFGDPGNPPEFNPSGSKDGKYELLTSANEVIVEEIKDLMTKSDIKGQHTETLLAGSLAKALCYIHRMNKEVKDNQEMKSRILVIKAAEDSALQYMNFMNVIFAAQKQNILIDACVLDSDSGLLQQACDITGGLYLKVPQMPSLLQYLLWVFLPDQDQRSQLILPPPVHVDYRAACFCHRNLIEIGYVCSVCLSIFCNFSPICTTCETAFKISLPPVLKAKKKKLKVSA | binds
CCND3 (protein, UniProt P30281 1-292) MELLCCEGTRHAPRAGPDPRLLGDQRVLQSLLRLEERYVPRASYFQCVQREIKPHMRKMLAYWMLEVCEEQRCEEEVFPLAMNYLDRYLSCVPTRKAQLQLLGAVCMLLASKLRETTPLTIEKLCIYTDHAVSPRQLRDWEVLVLGKLKWDLAAVIAHDFLAFILHRLSLPRDRQALVKKHAQTFLALCATDYTFAMYPPSMIATGSIGAAVQGLGACSMSGDELTELLAGITGTEVDCLRACQEQIEAALRESLREASQTSSSPAPKAPRGSSSQGPSQTSTPTDVTAIHL | binds

Results, then the molecule that gave them:

binding | Molecule
binds | ASB7 (from UniProt Q9H672 1-318)
binds | ELOB (from UniProt Q15370 1-118)
binds | LRRC28 (from UniProt Q86X40 1-367)
binds | RAB40C (from UniProt Q96S21 1-281)
binds | SOCS4 (from UniProt Q8WXH5 1-440)
binds | WSB1 (protein, UniProt Q9Y6I7 1-421) MASFPPRVNEKEIVRLRTIGELLAPAAPFDKKCGRENWTVAFAPDGSYFAWSQGHRTVKLVPWSQCLQNFLLHGTKNVTNSSSLRLPRQNSDGGQKNKPREHIIDCGDIVWSLAFGSSVPEKQSRCVNIEWHRFRFGQDQLLLATGLNNGRIKIWDVYTGKLLLNLVDHTEVVRDLTFAPDGSLILVSASRDKTLRVWDLKDDGNMMKVLRGHQNWVYSCAFSPDSSMLCSVGASKAVFLWNMDKYTMIRKLEGHHHDVVACDFSPDGALLATASYDTRVYIWDPHNGDILMEFGHLFPPPTPIFAGGANDRWVRSVSFSHDGLHVASLADDKMVRFWRIDEDYPVQVAPLSNGLCCAFSTDGSVLAAGTHDGSVYFWATPRQVPSLQHLCRMSIRRVMPTQEVQELPIPSKLLEFLSYRI
binds | WSB2 (protein, UniProt Q9NYS7 1-404) MEAGEEPLLLAELKPGRPHQFDWKSSCETWSVAFSPDGSWFAWSQGHCIVKLIPWPLEEQFIPKGFEAKSRSSKNETKGRGSPKEKTLDCGQIVWGLAFSPWPSPPSRKLWARHHPQVPDVSCLVLATGLNDGQIKIWEVQTGLLLLNLSGHQDVVRDLSFTPSGSLILVSASRDKTLRIWDLNKHGKQIQVLSGHLQWVYCCSISPDCSMLCSAAGEKSVFLWSMRSYTLIRKLEGHQSSVVSCDFSPDSALLVTASYDTNVIMWDPYTGERLRSLHHTQVDPAMDDSDVHISSLRSVCFSPEGLYLATVADDRLLRIWALELKTPIAFAPMTNGLCCTFFPHGGVIATGTRDGHVQFWTAPRVLSSLKHLCRKALRSFLTTYQVLALPIPKKMKEFLTYRTF
binds | LRRC41 (protein, UniProt Q15345 1-812) MAAPEAWRARSCWFCEVAAATTMEATSREAAPAKSSASGPNAPPALFELCGRAVSAHMGVLESGVWALPGPILQSILPLLNIYYLERIEETALKKGLSTQAIWRRLWDELMKTRPSSLESVTCWRAKFMEAFFSHVLRGTIDVSSDRRLCDQRFSPLLHSSRHVRQLTICNMLQGATELVAEPNRRVLETLASSLHTLKFRHLLFSDVAAQQSLRQLLHQLIHHGAVSQVSLYSWPVPESALFILILTMSAGFWQPGPGGPPCRLCGEASRGRAPSRDEGSLLLGSRRPRRDAAERCAAALMASRRKSEAKQMPRAAPATRVTRRSTQESLTAGGTDLKRELHPPATSHEAPGTKRSPSAPAATSSASSSTSSYKRAPASSAPQPKPLKRFKRAAGKKGARTRQGPGAESEDLYDFVFIVAGEKEDGEEMEIGEVACGALDGSDPSCLGLPALEASQRFRSISTLELFTVPLSTEAALTLCHLLSSWVSLESLTLSYNGLGSNIFRLLDSLRALSGQAGCRLRALHLSDLFSPLPILELTRAIVRALPLLRVLSIRVDHPSQRDNPGVPGNAGPPSHIIGDEEIPENCLEQLEMGFPRGAQPAPLLCSVLKASGSLQQLSLDSATFASPQDFGLVLQTLKEYNLALKRLSFHDMNLADCQSEVLFLLQNLTLQEITFSFCRLFEKRPAQFLPEMVAAMKGNSTLKGLRLPGNRLGNAGLLALADVFSEDSSSSLCQLDISSNCIKPDGLLEFAKRLERWGRGAFGHLRLFQNWLDQDAVTAREAIRRLRATCHVVSDSWDSSQAFADYVSTM
binds | LRRC42 (protein, UniProt Q9Y546 1-428) MSYYLSSENHLDPGPIYMRENGQLHMVNLALDGVRSSLQKPRPFRLFPKGFSVELCMNREDDTARKEKTDHFIFTYTREGNLRYSAKSLFSLVLGFISDNVDHIDSLIGFPEQIAEKLFSAAEARQKFTEPGAGLRALQKFTEAYGSLVLCSLCLRNRYLVISEKLEEIKSFRELTCLDLSCCKLGDEHELLEHLTNEALSSVTQLHLKDNCLSDAGVRKMTAPVRVMKRGLENLTLLDLSCNPEITDAGIGYLFSFRKLNCLDISGTGLKDIKTVKHKLQTHIGLVHSKVPLKEFDHSNCKTEGWADQIVLQWERVTAEAVKPRETSEPRAAAQRFYGKRSRAEAPLKCPLADTHMNSSEKLQFYKEKAPDCHGPVLKHEAISSQESKKSKKRPFEESETEQNNSSQPSKQKYVCLAVEDWDLLNSY
